{
  "sequences": {"note": "The chains behind the UniProt entries cited, without tags or fusion partners. Residues count along the entry.", "UniProt P01127, 82-190": "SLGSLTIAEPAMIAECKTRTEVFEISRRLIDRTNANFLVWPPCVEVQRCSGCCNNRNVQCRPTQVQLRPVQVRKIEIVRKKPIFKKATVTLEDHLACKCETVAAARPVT"},
  "source": "patent US5723594",
  "molecular_target": "PDGF-BB (Homo sapiens) (UniProt P01127)",
  "assay": "activity in cells",
  "conditions": "3'-3' linked inverted T at 3' end; control ligand; thymidine incorporation; purified recombinant protein; protein details: R&D Systems, carrier-free, E. coli produced; single-stranded DNA; dose not given here",
  "note": "A negative result means that nothing was seen under these conditions.",
  "data": [
    {"sequence": "CAGTCCGTGGTAGGGCAGGTTGGGGTGACTTCGTGGAAT [T39 (thrombin ligand)]", "values": [
      {"measurement": "functional effect of the aptamer", "value": "not active"}
    ]}
  ]
}
